PubChem BioAssay AID1259254, NCATS, 2017
Screen: 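Genome-wide screen for genes that prevent DNA re-replication in cancer cells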 (primary screen). Cell system: human HCT116 colorectal cancer cells. Reagents: single siRNA against human genes. Duration: 3 days. Measurement: 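Imaged Hoechst DNA stain sorts each cell into a cycle phase by DNA amount; per plate, G2 fraction set to 0% for non-targeting and 100% for GMNN siRNA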. Scale: G2 robust z-score and G2 cells, % of GMNN control: higher = more G2 cells, more excess DNA replication; raw share of cells in G2: higher = larger share of cells with G2 DNA content. Rule for the call: 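An siRNA counts as active if its G2 robust z-score lies at least 5 MADs above the screen median; here such calls match roughly 38% of GMNN control or more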.
In all, the deposit lists about 59,000 reagents; this is an unselected part. About 1,550 of all reagents (2.6%) were called active. 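G2 share is only a proxy for re-replication; each gene was hit by three separate siRNAs, and active genes were retested.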 Raw values are not corrected between plates. The numbers tell different reagents against one gene apart. The record does not give: the amount of reagent.

| gene | reagent no. | G2 robust z-score | G2 cells, % of GMNN control | raw share of cells in G2 (%) | Outcome |
| --- | --- | --- | --- | --- | --- |
| CARS1 | 1 | -0.679 | -1.81 | 3.32 | inactive |
| CARS1 | 2 | -0.213 | 1.47 | 5.22 | inactive |
| CARS1 | 3 | -0.841 | -2.95 | 4.02 | inactive |
| F8A1 | 1 | 0.653 | 7.56 | 8.49 | inactive |
| F8A1 | 2 | -0.0353 | 2.72 | 4.97 | inactive |
| F8A1 | 3 | 3.7 | 29 | 13.6 | inactive |
| FZD10 | 1 | 0.366 | 5.54 | 7.82 | inactive |
| FZD10 | 2 | -0.426 | -0.0333 | 4.51 | inactive |
| FZD10 | 3 | -1.07 | -4.56 | 1.87 | inactive |
| IL15 | 1 | 0.231 | 4.59 | 6.71 | inactive |
| IL15 | 2 | 0.0968 | 3.65 | 7.07 | inactive |
| IL15 | 3 | -0.875 | -3.19 | 3.03 | inactive |
| UNK | 1 | -0.46 | -0.271 | 3.97 | inactive |
| UNK | 2 | -0.589 | -1.17 | 2.63 | inactive |
| UNK | 3 | -0.0777 | 2.42 | 3.69 | inactive |
| PI15 | 1 | -0.228 | 1.36 | 4.37 | inactive |
| PI15 | 2 | -0.035 | 2.72 | 5.58 | inactive |
| PI15 | 3 | -0.0186 | 2.84 | 4.15 | inactive |
| CDC42EP4 | 1 | -0.0423 | 2.67 | 5.42 | inactive |
| CDC42EP4 | 2 | -0.397 | 0.172 | 4.01 | inactive |
| CDC42EP4 | 3 | -0.0761 | 2.43 | 4.15 | inactive |
| LMO4 | 1 | -1.38 | -6.75 | 1.28 | inactive |
| LMO4 | 2 | 1.76 | 15.3 | 12.8 | inactive |
| LMO4 | 3 | 0.267 | 4.85 | 5.37 | inactive |
| MRI1 | 1 | -0.695 | -1.92 | 3.47 | inactive |
| MRI1 | 2 | -1.31 | -6.26 | 1.6 | inactive |
| MRI1 | 3 | -0.692 | -1.9 | 1.83 | inactive |
| ZFYVE9 | 1 | 6.96 | 52 | 21.6 | active |
| ZFYVE9 | 2 | -0.289 | 0.935 | 5.99 | inactive |
| ZFYVE9 | 3 | 2.24 | 18.7 | 11.2 | inactive |
| TOR1B | 1 | -0.58 | -1.12 | 2.9 | inactive |
| TOR1B | 2 | 1.35 | 12.5 | 8.63 | inactive |
| TOR1B | 3 | 3.37 | 26.7 | 14.6 | inactive |
| MYH14 | 1 | -0.989 | -3.99 | 2.75 | inactive |
| MYH14 | 2 | -1.19 | -5.37 | 3.19 | inactive |
| MYH14 | 3 | 2.56 | 21 | 12.6 | inactive |
| H3C1 | 1 | 0.0768 | 3.51 | 6.69 | inactive |
| H3C1 | 2 | 0.87 | 9.09 | 7.5 | inactive |
| H3C1 | 3 | 0.908 | 9.35 | 6.65 | inactive |
| SRGN | 1 | 2.86 | 23.1 | 14.8 | inactive |
| SRGN | 2 | 1.32 | 12.3 | 9.07 | inactive |
| SRGN | 3 | 0.441 | 6.07 | 5.55 | inactive |
| RGS1 | 1 | 0.336 | 5.33 | 6.81 | inactive |
| RGS1 | 2 | 0.253 | 4.75 | 6.49 | inactive |
| RGS1 | 3 | 0.212 | 4.46 | 5.63 | inactive |
| VMP1 | 1 | -0.165 | 1.81 | 4.71 | inactive |
| VMP1 | 2 | -0.337 | 0.593 | 3.63 | inactive |
| VMP1 | 3 | -0.636 | -1.51 | 1.95 | inactive |
| NEMP1 | 1 | -0.356 | 0.459 | 4.59 | inactive |
| NEMP1 | 2 | -0.229 | 1.36 | 4.53 | inactive |
| NEMP1 | 3 | 4.86 | 37.1 | 16.3 | inactive |
| HAS3 | 1 | 1.83 | 15.9 | 11.7 | inactive |
| HAS3 | 2 | -0.4 | 0.155 | 4.26 | inactive |
| HAS3 | 3 | 0.187 | 4.28 | 6.6 | inactive |
| ACTR10 | 1 | 2.89 | 23.3 | 12.8 | inactive |
| ACTR10 | 2 | -0.437 | -0.104 | 4.29 | inactive |
| ACTR10 | 3 | 0.524 | 6.66 | 9.35 | inactive |
| CHODL | 1 | 1.94 | 16.6 | 10.4 | inactive |
| CHODL | 2 | 0.693 | 7.84 | 5.59 | inactive |
| CHODL | 3 | -0.351 | 0.498 | 2.76 | inactive |
| DSG3 | 1 | -1.08 | -4.62 | 2.5 | inactive |
| DSG3 | 2 | -0.389 | 0.227 | 5.04 | inactive |
| DSG3 | 3 | -0.315 | 0.75 | 5.27 | inactive |
| ZNF624 | 1 | 0.447 | 6.11 | 4.95 | inactive |
| ZNF624 | 2 | 0.423 | 5.94 | 8.59 | inactive |
| ZNF624 | 3 | -0.488 | -0.468 | 3.49 | inactive |
| RPL10P9 | 1 | -0.99 | -3.99 | 1.67 | inactive |
| RPL10P9 | 2 | 1.34 | 12.4 | 9.94 | inactive |
| RPL10P9 | 3 | 5.4 | 41 | 17.8 | active |

Called active, among the entries above:
| gene | reagent no. | G2 robust z-score | G2 cells, % of GMNN control | raw share of cells in G2 (%) | Outcome |
| --- | --- | --- | --- | --- | --- |
| ZFYVE9 | 1 | 6.96 | 52 | 21.6 | active |
| RPL10P9 | 3 | 5.4 | 41 | 17.8 | active |
